This is an account of results in paper PMC4809424.

Amino acid sequences for entries named in this document (tags omitted).
UniProt P14635: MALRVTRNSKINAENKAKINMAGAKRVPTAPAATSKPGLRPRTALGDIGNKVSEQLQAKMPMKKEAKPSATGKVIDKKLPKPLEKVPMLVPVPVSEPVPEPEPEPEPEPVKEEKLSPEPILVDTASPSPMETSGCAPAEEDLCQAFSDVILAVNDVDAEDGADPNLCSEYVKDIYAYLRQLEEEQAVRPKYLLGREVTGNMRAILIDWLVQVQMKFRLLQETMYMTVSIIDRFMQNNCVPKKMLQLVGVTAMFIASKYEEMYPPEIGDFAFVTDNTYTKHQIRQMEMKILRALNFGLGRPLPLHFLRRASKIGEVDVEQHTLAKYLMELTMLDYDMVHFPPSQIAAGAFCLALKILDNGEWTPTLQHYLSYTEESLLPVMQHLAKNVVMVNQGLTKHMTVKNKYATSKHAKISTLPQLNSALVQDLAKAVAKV
UniProt Q00526: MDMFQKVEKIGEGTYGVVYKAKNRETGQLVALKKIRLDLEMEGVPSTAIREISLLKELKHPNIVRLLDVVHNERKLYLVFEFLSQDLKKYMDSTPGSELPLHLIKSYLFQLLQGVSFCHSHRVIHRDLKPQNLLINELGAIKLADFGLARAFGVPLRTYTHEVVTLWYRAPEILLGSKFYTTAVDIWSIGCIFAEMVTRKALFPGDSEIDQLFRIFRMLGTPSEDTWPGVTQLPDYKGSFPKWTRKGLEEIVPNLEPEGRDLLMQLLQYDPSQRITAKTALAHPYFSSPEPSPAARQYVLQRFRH

Results are given in words; binding and its absence hold for the method and conditions named. Binding seen in cells or lysates may run through a third protein. A yes stands for co-enrichment or nearness to the bait. Other partners may have been found.

This assay concerns the target Flag-tagged CCNB1 (UniProt P14635). Briefly: affinity purification with mass spectrometry; HCT116 cells transfected with Flag-tagged CCNB1; RIPA lysis buffer; anti-Flag antibody-conjugated agarose; eluted with 100 uM Flag peptide; trypsin digest, mass spectrometry.

With “CDK3 (from UniProt Q00526 1-305) (enzyme)”, the binding entry is on record as “binds”.
